# Primary screen of a compound library

A: 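Whole-parasite assay of Trypanosoma brucei over 72 hours; the read-out is not stated. Compounds at 30 µM. The record gives no direction; compounds that gave an IC50 in retests scored well above the rest, so higher reads as stronger inhibition. Values scatter widely below zero; nearly all retest evidence comes from the higher of the two concentrations used. Size under these conditions: about 64,000 compounds, about 940 of them at 50% or above in at least one test.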
B: 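Assay of Toxoplasma gondii numbers, read through their beta-galactosidase reporter with a colour substrate. Tested at 10 µM. The record gives no direction; the compounds picked for IC50 retests had high values, so higher reads as fewer parasites. Size under these conditions: about 67,000 compounds, about 260 of them at 50% or above in at least one test.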

Each number is a percent effect as filed. The record does not define 0% and 100%; most values in the screen are far below 50% and negative numbers occur (in some assays of this library far below -100). The compounds are a random part of those screened.

* NC(=O)C1CCCN(c2ccc(CNC(=O)c3cc[nH]n3)cc2)C1 (configuration not stated) : A: -15.31%; B: -7.154%
* O=C(Nc1ccccc1)C1=NOC2(CCCN(C(=O)N3CCCC3)C2)C1 (configuration not stated) : A: 18.07%; B: 4.085%
* CN1CCN([C@@H]2CCN(C(N)=O)[C@H]2Cc2ccccc2)CC1 : B: -3.976%
* O=C(c1ccc(N2CCOCC2)nc1)N1CCCC(n2cccn2)C1 (configuration not stated) : A: 7.19%; B: -32.98%
* CN1CCOC(CN(C(=O)CCCn2cccn2)c2nccs2)C1 (configuration not stated) : A: -3.162%; B: -47.01%
* CN(C)C(=O)CNC(=O)c1nc(C2CC2)n(-c2ccccc2Cl)n1 : B: 3.603%
* O=C(Cc1n[nH]c(-c2cncc(Br)c2)n1)NCc1cccnc1 : A: -33.48%; B: -5.556%
* COc1cc(C(C)=O)ccc1OCC(=O)N(Cc1ccsc1)C1CC1 : A: -49.48%; B: 3.502%
* O=C(NCCNc1ncccn1)c1cnc(-c2ccccc2)nc1 : A: -6.695%; B: 3.304%
* CN(Cc1ccccc1F)C(=O)c1ccoc1 : A: -3.298%; B: -1.451%
* Cc1nn(CC(C)C)c(N(C)C)c1CNCc1ccnn1C : A: -10.03%; B: -1.028%
* O=C(O)C(F)(F)F.O=C(O)C(F)(F)F.[H][C@@]12CCCO[C@]1([H])[C@H](N(C)Cc1cccnc1)CN2C(=O)c1ccoc1 : A: -7.538%; B: 8.231%
* Cn1cc(CN2CCCC23CCN(C(=O)c2ccccn2)CC3)cn1.O=C(O)C(F)(F)F : A: 7.904%; B: -2.794%
* [H][C@@]12CC(=O)N(Cc3csc(C)n3)[C@@]1([H])CCN2C(=O)C1CCOCC1 : A: -20.2%; B: 17.85%
* CC(C)Oc1ccc2c(NC(=O)CNC(N)=O)nn(CC(F)(F)F)c2c1 : A: 5.043%; B: -9.977%
* CCc1nccn1C1CCCN(C(=O)C2=NN(C)C(=O)CC2)C1 (configuration not stated) : A: -18.44%; B: -27.42%
* Cc1ccc(CN2CCC3(CC2)CC(CC(=O)NC(C)C)CO3)s1.O=C(O)C(F)(F)F (configuration not stated) : A: -52.98%; B: -41.64%
* Cc1ccc(CN2CC3(CCN(S(=O)(=O)c4ccccc4)C3)C2)o1 : A: -10.21%; B: -12.26%
* Cl.Cl.[H][C@@]12CN(Cc3ccccc3F)C[C@]1([H])C2CN (some centres not stated) : A: 16.47%; B: -18.53%
* O=C(C(CNCc1ccccc1O)c1ccccc1)N1CCOCC1 (configuration not stated) : A: -15.77%; B: -16.67%
* Cc1cc(C)c(CNC(=O)NC2COc3ccccc3C2)c(=O)[nH]1 (configuration not stated) : A: 6.879%; B: 2.5%
* O=C(Cc1cccs1)NS(=O)(=O)c1cccc2cnccc12 : A: -30.48%; B: 2.267%
* COc1cccc(-c2cnc3n2CCC32CCN(C(C)=O)CC2)c1 : A: -74.88%; B: 1.436%
* COc1ccccc1C1CC(=O)Nc2c1c(=O)[nH]n2C1CCCC1 (configuration not stated) : A: 8.949%; B: 6.589%
* COCC1CN(C(=O)[C@H]2CCCO2)Cc2nnn(CC3CC3)c21 (some centres not stated) : A: -62.2%; B: 5.798%
* CC1(CO)COC(Cc2ccc(Cl)cc2)=N1 (configuration not stated) : A: -71.84%; B: 14.31%
* O=C(O)C(F)(F)F.O=C(O)C(F)(F)F.O=C(O)C(F)(F)F.[H][C@@]12COC[C@]1(COc1ccccn1)CN(Cc1cccnc1OC)C2 : A: -20.75%; B: 1.055%
* OCc1ccc(-c2nccn2CCC2=CCCCC2)o1 : A: -29.59%; B: 1.308%
* CCn1ccc(NC(=O)CCc2c(C)nn(C)c2C)n1 : A: -43.96%; B: 32.33%
* Cc1ccc(C(=O)N2CCOC3(CCCC3)C2)c(=O)[nH]1 : A: -25.06%; B: 0.5668%
* OCc1ccc(OCC(F)(F)F)cc1 : A: -59.88%; B: 1.686%
* COCCc1ncc(CNC2(c3ccc(Cl)cc3)CC2)cn1 : A: -8.238%; B: 14.5%

Once more, the final 3:

SMILES,A,B
Cc1ccc(C(=O)N2CCOC3(CCCC3)C2)c(=O)[nH]1,-25.06,0.5668
OCc1ccc(OCC(F)(F)F)cc1,-59.88,1.686
COCCc1ncc(CNC2(c3ccc(Cl)cc3)CC2)cn1,-8.238,14.5

Data taken from ChEMBL document CHEMBL3988442, “University of Dundee, Small-Polar-MMV Screening Library” (2021).